These are yes or no findings as the source states them, for the method shown. In cells and extracts the contact can be indirect. Some binding calls cover weakened binding; strength is not graded here.

Sequences of proteins named here, by UniProt entry; tags and fusion partners are left off.
UniProt Q14457: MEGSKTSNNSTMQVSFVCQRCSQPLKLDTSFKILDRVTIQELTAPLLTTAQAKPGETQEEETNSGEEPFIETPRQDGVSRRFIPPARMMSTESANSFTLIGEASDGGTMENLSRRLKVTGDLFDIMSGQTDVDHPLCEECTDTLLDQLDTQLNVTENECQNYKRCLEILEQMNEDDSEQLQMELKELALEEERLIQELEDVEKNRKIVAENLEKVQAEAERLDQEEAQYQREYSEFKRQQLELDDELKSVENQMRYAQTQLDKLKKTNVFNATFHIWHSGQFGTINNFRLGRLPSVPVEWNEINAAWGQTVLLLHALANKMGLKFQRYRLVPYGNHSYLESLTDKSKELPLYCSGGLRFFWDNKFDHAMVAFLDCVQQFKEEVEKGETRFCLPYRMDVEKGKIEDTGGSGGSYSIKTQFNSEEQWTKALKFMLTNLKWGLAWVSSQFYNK
UniProt P10415: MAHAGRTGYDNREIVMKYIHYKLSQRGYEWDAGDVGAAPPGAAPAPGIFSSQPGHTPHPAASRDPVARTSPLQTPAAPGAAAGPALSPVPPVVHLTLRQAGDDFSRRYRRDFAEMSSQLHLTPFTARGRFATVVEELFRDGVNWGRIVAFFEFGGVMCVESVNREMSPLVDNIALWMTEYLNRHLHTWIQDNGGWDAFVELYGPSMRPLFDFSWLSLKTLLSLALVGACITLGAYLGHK

The target in this test is Beclin1 (human (endogenous in HEK293T)) (UniProt Q14457). Briefly: co-IP; 800 ug of whole-cell lysate of HEK293T cells incubated with anti-GIT1 or anti-Beclin1 antibody overnight at 4 °C, protein A/G Sepharose 2 h, three washes with lysis buffer, western blot; cells under basal or starvation (EBSS) conditions, with or without GIT1; IgG as control. A general note: A western blot detects proteins with antibodies after separation by electrophoresis.

On to Bcl2 (from UniProt P10415 1-239), for which the binding result is recorded as “binds”.
